These results are taken from the supplement of paper PMC10849652.

By UniProt entry, the sequences of proteins in these tests, tags left out. Where a name states a change or a piece, a line headed by the entry shows the natural chain unless it says otherwise.
UniProt Q6P9F7: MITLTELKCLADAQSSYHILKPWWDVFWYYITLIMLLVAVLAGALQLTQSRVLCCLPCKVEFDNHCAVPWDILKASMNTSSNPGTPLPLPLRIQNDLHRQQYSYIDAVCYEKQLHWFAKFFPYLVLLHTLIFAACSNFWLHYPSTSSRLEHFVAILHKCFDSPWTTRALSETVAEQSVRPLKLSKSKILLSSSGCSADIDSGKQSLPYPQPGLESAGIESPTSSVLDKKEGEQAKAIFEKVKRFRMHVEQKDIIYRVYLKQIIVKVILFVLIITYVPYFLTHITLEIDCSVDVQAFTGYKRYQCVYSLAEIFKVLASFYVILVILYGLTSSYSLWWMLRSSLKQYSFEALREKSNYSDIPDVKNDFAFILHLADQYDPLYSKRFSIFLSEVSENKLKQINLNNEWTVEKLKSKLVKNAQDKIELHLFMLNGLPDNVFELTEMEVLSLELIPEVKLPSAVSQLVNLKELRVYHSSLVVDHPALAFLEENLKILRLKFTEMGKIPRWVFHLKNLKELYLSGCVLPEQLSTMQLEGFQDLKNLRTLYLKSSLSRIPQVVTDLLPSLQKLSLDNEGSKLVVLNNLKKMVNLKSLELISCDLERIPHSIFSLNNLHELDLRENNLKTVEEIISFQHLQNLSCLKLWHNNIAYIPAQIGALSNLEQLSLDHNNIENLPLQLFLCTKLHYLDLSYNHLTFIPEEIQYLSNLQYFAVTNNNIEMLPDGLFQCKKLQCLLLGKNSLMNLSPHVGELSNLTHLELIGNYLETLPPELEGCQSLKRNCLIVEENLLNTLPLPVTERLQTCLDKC
UniProt O15525: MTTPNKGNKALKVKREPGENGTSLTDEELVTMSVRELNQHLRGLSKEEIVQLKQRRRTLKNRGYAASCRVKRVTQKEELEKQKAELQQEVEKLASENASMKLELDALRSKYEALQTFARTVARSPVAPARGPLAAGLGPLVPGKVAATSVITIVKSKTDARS
UniProt Q14766: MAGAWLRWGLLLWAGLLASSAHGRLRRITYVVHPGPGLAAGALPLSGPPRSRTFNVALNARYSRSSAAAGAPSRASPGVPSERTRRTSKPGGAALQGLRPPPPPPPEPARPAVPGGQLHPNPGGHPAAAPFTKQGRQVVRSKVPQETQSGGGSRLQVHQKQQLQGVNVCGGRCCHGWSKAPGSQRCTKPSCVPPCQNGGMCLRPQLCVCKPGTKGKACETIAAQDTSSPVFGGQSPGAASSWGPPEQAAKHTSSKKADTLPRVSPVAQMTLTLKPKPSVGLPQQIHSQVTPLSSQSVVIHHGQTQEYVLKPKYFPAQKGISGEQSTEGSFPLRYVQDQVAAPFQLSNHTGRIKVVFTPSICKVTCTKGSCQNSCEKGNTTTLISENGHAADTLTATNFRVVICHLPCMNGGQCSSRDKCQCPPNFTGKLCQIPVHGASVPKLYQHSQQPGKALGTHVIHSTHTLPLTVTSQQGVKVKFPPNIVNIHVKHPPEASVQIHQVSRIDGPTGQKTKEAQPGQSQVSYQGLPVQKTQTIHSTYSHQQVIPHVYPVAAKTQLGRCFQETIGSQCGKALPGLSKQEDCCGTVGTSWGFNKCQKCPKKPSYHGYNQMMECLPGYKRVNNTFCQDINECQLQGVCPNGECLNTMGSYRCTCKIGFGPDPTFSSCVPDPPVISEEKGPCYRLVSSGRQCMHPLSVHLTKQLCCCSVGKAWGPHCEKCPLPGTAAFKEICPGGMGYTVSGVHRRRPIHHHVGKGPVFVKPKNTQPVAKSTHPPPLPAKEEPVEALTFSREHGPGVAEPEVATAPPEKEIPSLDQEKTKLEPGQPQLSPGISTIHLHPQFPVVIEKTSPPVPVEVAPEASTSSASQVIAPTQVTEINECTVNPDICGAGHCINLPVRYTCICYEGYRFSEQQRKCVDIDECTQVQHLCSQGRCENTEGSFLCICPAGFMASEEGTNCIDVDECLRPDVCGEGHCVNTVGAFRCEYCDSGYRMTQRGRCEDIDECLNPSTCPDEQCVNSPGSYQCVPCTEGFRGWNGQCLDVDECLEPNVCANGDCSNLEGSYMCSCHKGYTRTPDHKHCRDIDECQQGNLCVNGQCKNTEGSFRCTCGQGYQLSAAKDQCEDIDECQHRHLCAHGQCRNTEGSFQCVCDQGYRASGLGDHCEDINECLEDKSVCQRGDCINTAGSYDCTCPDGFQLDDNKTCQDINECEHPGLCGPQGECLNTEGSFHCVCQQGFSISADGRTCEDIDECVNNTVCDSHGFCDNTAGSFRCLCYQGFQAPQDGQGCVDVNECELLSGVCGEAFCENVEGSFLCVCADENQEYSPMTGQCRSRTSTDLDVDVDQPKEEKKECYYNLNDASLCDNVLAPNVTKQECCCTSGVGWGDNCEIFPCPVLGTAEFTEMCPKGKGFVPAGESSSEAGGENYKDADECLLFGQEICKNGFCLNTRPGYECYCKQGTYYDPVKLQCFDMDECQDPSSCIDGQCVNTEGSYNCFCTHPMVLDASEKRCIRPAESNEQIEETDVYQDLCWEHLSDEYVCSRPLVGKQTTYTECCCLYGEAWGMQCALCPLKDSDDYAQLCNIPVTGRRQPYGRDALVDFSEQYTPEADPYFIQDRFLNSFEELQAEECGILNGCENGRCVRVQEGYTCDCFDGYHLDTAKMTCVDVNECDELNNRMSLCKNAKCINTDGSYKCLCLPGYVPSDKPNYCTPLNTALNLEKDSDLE
UniProt Q99759: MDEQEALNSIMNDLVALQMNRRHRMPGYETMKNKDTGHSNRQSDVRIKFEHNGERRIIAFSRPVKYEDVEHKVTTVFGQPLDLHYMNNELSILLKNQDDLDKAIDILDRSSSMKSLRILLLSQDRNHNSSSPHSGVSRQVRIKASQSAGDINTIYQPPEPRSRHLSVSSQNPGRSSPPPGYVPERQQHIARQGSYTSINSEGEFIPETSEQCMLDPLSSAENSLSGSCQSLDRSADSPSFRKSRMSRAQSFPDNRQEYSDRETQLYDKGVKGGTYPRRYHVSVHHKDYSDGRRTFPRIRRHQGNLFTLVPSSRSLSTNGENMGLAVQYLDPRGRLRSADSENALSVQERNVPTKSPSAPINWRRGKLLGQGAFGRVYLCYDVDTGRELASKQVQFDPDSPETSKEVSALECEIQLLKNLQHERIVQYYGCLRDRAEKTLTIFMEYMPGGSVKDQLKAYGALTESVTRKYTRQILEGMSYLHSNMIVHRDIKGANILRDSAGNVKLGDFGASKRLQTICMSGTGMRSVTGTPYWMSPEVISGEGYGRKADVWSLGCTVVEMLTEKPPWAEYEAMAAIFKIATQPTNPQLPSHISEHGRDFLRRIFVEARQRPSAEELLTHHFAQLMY
UniProt P07948: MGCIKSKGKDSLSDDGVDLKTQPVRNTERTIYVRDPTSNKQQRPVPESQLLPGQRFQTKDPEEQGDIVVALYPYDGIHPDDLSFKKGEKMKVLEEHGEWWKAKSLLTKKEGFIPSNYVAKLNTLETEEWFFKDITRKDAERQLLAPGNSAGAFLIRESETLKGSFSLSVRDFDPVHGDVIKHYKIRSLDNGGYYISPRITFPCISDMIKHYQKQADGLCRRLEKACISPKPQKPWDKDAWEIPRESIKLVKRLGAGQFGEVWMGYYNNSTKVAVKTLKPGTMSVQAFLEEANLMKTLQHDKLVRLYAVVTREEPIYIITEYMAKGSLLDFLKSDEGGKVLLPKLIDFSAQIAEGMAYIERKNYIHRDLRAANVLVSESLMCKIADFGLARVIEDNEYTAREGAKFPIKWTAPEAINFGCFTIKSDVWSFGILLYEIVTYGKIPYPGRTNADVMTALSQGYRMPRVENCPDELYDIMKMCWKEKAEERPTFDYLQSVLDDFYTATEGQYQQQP
UniProt Q8N2S1: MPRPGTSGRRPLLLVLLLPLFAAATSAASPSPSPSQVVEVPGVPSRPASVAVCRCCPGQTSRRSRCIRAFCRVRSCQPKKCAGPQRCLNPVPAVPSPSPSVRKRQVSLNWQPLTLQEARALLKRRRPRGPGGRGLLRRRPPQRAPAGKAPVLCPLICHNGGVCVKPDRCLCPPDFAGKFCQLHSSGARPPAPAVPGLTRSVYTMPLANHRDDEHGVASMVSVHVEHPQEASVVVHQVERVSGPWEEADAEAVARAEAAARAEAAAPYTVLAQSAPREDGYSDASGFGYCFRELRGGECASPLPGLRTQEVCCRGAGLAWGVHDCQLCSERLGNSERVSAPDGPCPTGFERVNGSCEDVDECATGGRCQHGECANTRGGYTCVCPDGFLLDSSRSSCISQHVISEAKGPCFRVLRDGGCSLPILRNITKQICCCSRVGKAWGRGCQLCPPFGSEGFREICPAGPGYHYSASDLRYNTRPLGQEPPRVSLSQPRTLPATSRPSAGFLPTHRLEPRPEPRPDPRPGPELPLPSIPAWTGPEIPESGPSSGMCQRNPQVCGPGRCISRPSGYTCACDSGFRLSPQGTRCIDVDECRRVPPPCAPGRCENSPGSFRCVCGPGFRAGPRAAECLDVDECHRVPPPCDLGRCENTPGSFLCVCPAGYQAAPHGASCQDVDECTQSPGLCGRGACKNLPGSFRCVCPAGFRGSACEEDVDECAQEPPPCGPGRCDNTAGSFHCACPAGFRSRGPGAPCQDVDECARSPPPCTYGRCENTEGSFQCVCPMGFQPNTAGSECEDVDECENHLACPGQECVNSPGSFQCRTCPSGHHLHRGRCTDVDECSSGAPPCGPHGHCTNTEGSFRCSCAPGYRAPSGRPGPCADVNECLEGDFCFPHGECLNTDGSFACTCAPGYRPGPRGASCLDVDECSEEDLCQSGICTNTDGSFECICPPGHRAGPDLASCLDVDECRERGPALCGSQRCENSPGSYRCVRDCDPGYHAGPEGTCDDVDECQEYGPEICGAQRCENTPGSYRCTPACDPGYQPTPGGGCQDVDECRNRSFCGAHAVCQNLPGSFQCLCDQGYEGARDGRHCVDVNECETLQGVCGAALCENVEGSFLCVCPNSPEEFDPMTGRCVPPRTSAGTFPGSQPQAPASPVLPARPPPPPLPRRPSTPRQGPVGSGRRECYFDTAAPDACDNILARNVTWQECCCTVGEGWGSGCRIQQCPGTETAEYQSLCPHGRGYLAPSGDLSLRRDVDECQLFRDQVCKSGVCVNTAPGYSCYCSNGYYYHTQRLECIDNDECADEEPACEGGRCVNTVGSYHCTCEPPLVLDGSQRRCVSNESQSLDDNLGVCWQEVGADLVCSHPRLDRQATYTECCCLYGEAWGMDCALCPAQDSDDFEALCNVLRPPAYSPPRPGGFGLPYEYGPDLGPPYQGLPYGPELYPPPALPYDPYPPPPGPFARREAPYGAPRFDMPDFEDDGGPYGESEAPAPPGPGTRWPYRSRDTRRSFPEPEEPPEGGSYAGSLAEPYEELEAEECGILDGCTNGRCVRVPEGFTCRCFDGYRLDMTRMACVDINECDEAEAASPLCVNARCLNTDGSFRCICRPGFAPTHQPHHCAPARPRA
UniProt P10636, whole entry, looked up: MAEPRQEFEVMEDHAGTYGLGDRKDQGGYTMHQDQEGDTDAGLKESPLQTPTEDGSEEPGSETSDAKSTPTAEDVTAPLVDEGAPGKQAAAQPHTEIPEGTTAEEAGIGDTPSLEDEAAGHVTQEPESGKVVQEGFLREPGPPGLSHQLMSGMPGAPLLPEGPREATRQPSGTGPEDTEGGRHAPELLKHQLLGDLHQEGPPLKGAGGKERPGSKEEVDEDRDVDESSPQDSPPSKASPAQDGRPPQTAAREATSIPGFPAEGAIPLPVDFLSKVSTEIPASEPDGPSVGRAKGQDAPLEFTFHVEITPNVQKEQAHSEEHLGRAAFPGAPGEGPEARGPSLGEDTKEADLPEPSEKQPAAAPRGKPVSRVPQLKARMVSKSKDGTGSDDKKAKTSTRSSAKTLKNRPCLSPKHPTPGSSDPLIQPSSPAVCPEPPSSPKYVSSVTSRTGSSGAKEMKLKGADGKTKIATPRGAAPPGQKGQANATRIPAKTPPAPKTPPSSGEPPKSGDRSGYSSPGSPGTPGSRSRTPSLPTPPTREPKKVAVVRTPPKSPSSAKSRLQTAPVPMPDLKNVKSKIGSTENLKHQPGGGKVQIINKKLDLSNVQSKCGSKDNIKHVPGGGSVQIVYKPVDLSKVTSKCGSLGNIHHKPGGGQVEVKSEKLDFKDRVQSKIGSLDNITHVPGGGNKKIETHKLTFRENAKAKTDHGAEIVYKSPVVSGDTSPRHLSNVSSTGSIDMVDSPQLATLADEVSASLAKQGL
UniProt Q96LZ2: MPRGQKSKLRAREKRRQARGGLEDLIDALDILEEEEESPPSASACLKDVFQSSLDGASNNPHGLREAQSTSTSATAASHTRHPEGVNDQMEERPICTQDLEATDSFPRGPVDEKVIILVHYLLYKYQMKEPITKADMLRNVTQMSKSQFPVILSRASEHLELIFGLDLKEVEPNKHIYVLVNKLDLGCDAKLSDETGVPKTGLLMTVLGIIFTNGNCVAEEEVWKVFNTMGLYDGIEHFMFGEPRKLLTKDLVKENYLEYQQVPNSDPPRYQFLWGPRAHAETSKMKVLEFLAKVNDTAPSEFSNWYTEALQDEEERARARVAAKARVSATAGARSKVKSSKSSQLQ

Some of the results follow.

Compound in the first assay: CC1=C(C=C(C=C1)NC(=O)C2=CC(=CC=C2)N(C)C)NC(=O)C3=CC=C(C=C3)O
The assay is described as follows: log2 fold change, soluble protein after heating vs DMSO (PISA); higher = thermal stabilisation; K562 cells, 10 uM, 30 min; active = over 0.2 and 3.5 SD of the protein, either way, in both replicates (recomputed). An outline of the steps: (§1)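 For each measurement, 10 μM compound was applied for 30 min to K562 cells at 2×10^6 cells/mL. Aliquots were heated for 3 min across 48°C-58°C, pooled, and extracted in PBS with 0.5% NP-40 at 4°C; the supernatant after 21,000xg for 90 min was soluble protein. This was quantified by TMTpro 16plex LC-MS/MS with channel sums equalised, and thermal stability was reported relative to control samples from duplicates, on a log2 fold-change scale.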
For the target MAP2K5 (UniProt Q13163), the log2 fold change was inactive: -0.085.

Take MAPKAP1 (UniProt Q9BPZ7): the log2 fold change is inactive: 0.071.

As for LRRC8B (UniProt Q6P9F7), the log2 fold change is inactive: 0.073.

MAFG (UniProt O15525): the log2 fold change was inactive: 0.09.

Take MAML1 (UniProt Q92585): the log2 fold change is inactive: -0.035.

Turning to MAP4 isoform 5 (UniProt P27816), the log2 fold change was inactive: 0.055.

Regarding MAPK11 (UniProt Q15759), the log2 fold change was inactive: 0.094.

On to LRRCC1 (UniProt Q9C099), for which the log2 fold change was inactive: 0.039.

For the target LTBP1 isoform 4 (UniProt Q14766), the log2 fold change is inactive: 0.026.

Take MAP7D3 (UniProt Q8IWC1): the log2 fold change is inactive: -0.014.

Regarding MAML2 (UniProt Q8IZL2), the log2 fold change is inactive: 0.217.

LYPLA1, A0A087X1K9: the log2 fold change was inactive: 0.108.

Consider MAP3K3 isoform 2 (UniProt Q99759), for which the log2 fold change is inactive: -0.049.

MAF1 (UniProt Q9H063): the log2 fold change is inactive: -0.191.

Compound in the next assay: CC1=CC=C(C=C1)SC2=C3C=C(SC3=CN=C2)C(=O)N
Described as above. An outline of the steps:
as §1
On to MAP3K20 isoform 2 (UniProt Q9NYL2), for which the log2 fold change was inactive: -0.038.

For the target LRRC8B (UniProt Q6P9F7), the log2 fold change was inactive: -0.095.

In the case of MAP4 isoform 5 (UniProt P27816), the log2 fold change is inactive: -0.173.

Consider MARCHF3 (UniProt Q86UD3), for which the log2 fold change was inactive: -0.008.

As to LSR isoform 3 (UniProt Q86X29), the log2 fold change was inactive: 0.04.

On to MAGED1 isoform 2 (UniProt Q9Y5V3), for which the log2 fold change is inactive: 0.1.

On to LTBP1 isoform 4 (UniProt Q14766), for which the log2 fold change was inactive: 0.054.

Consider MAPRE3 isoform 2 (UniProt Q9UPY8), for which the log2 fold change is inactive: -0.075.

Consider MAN2B1 (UniProt M0QYZ1), for which the log2 fold change is inactive: -0.254.

With MAP3K10 (UniProt Q02779), the log2 fold change is inactive: -0.132.

Consider LYN isoform 2 (UniProt P07948), for which the log2 fold change was inactive: -0.079.

With LTBP4 (UniProt Q8N2S1), the log2 fold change is inactive: 0.16.

On to MAPT isoform 9 (UniProt P10636), for which the log2 fold change was inactive: -0.081.

Compound in a further assay: CC1=NC(=CC=C1)C2=C(N=C(N2)C(C)(C)C)C3=CC4=NC=CN=C4C=C3
Described as above. The method, boiled down:
as §1
MAP2K5 (UniProt Q13163): the log2 fold change is inactive: 0.017.

MAP3K20 isoform 2 (UniProt Q9NYL2): the log2 fold change is inactive: 0.295.

Take MAML1 (UniProt Q92585): the log2 fold change is inactive: 0.199.

As to MAPK11 (UniProt Q15759), the log2 fold change was inactive: 0.045.

For the target LRRFIP1 isoform 4 (UniProt Q32MZ4), the log2 fold change was inactive: 0.186.

Consider MAPK7 (UniProt Q13164), for which the log2 fold change was inactive: -0.169.

MAPRE3 isoform 2 (UniProt Q9UPY8): the log2 fold change was inactive: -0.065.

On to MAN2B1 (UniProt M0QYZ1), for which the log2 fold change is inactive: -0.022.

As for LYN isoform 2 (UniProt P07948), the log2 fold change was inactive: -0.079.

Consider LTBP4 (UniProt Q8N2S1), for which the log2 fold change was inactive: 0.041.

As for MAD2L2 (UniProt Q9UI95), the log2 fold change was inactive: -0.554.

Compound in another assay: CCCCN(Cc1ccc(C(=O)NO)cc1)C(=O)Nc1ccccc1 [Nexturastat A]
The description is as above. An outline of the steps: as §1
Regarding MAPKAP1 (UniProt Q9BPZ7), the log2 fold change is inactive: 0.105.

Turning to MAP3K20 isoform 2 (UniProt Q9NYL2), the log2 fold change was inactive: 0.16.

LRRC8B (UniProt Q6P9F7): the log2 fold change is inactive: 0.068.

As for MAFG (UniProt O15525), the log2 fold change is inactive: 0.285.

On to MAML1 (UniProt Q92585), for which the log2 fold change is inactive: 0.039.

With MAP4 isoform 5 (UniProt P27816), the log2 fold change was inactive: 0.105.

With MARCHF3 (UniProt Q86UD3), the log2 fold change is inactive: 0.081.

MAGED1 isoform 2 (UniProt Q9Y5V3): the log2 fold change was active: 0.608.

For LTBP1 isoform 4 (UniProt Q14766), the log2 fold change was inactive: -0.185.

Consider LRRFIP1 isoform 4 (UniProt Q32MZ4), for which the log2 fold change was inactive: -0.077.

As to MAPK7 (UniProt Q13164), the log2 fold change is inactive: 0.275.

Consider MAP7D3 (UniProt Q8IWC1), for which the log2 fold change is inactive: 0.195.

Take MAN2B1 (UniProt M0QYZ1): the log2 fold change is inactive: 0.003.

For MAP3K3 isoform 2 (UniProt Q99759), the log2 fold change was inactive: -0.116.

As to LSR (UniProt M0QZL9), the log2 fold change is inactive: -0.157.

Regarding LYN isoform 2 (UniProt P07948), the log2 fold change is inactive: 0.376.

In the case of LTBP4 (UniProt Q8N2S1), the log2 fold change was inactive: 0.097.

For the target MAD2L2 (UniProt Q9UI95), the log2 fold change is inactive: 0.099.

On to LYST (UniProt Q99698), for which the log2 fold change is inactive: 0.004.

Turning to MAPT isoform 9 (UniProt P10636), the log2 fold change is inactive: -0.134.

Compound in the next assay: CCCS(=O)(=O)Nc1ccc(F)c(C(=O)c2c[nH]c3ncc(-c4ccc(Cl)cc4)cc23)c1F [vemurafenib]
The description is as above. The method, boiled down: as §1
As for MAFG (UniProt O15525), the log2 fold change was inactive: -0.114.

Regarding MAML1 (UniProt Q92585), the log2 fold change was inactive: 0.038.

For LSM14A, A0A140TA76, the log2 fold change is inactive: -0.019.

For the target MAGED1 isoform 2 (UniProt Q9Y5V3), the log2 fold change was inactive: -0.236.

As for LTBP1 isoform 4 (UniProt Q14766), the log2 fold change is inactive: 0.045.

Consider MAP3K10 (UniProt Q02779), for which the log2 fold change was inactive: -0.116.

For MAGEB10 (UniProt Q96LZ2), the log2 fold change is inactive: -0.134.

MAP3K3 isoform 2 (UniProt Q99759): the log2 fold change was inactive: 0.162.

For the target LSR (UniProt M0QZL9), the log2 fold change is inactive: 0.024.

On to LYN isoform 2 (UniProt P07948), for which the log2 fold change is inactive: 0.095.

Take MAP4K4 isoform 6 (UniProt O95819): the log2 fold change was inactive: -0.052.

As for LYST (UniProt Q99698), the log2 fold change was inactive: -0.037.

As to MAPT isoform 9 (UniProt P10636), the log2 fold change was inactive: -0.022.
